One sequence from doi:10.1101/2020.03.06.980961 can be followed below.

Holding throughout (assay): fluorescence anisotropy
A general note: In fluorescence polarisation assays a small probe gives low polarisation when free and higher when bound to something large.

In data set [1] the target is T1, Mtf1-WT (Saccharomyces cerevisiae) (UniProt P14908).
T1 sequence (looked up, limits assumed): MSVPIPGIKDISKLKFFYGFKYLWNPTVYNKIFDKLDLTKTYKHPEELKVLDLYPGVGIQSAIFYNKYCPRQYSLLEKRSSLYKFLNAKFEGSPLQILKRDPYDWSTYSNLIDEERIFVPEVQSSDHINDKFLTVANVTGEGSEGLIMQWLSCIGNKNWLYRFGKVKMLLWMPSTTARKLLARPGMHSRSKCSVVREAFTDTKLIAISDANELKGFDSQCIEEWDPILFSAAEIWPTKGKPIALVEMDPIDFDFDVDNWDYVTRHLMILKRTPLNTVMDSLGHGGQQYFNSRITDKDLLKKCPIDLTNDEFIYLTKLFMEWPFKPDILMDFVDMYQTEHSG
The conditions noted are these: Buffer A.

For data set [2], the target named is T2, Mtf1-Δ20 (Saccharomyces cerevisiae) (UniProt P14908).
T2 sequence (looked up, limits assumed): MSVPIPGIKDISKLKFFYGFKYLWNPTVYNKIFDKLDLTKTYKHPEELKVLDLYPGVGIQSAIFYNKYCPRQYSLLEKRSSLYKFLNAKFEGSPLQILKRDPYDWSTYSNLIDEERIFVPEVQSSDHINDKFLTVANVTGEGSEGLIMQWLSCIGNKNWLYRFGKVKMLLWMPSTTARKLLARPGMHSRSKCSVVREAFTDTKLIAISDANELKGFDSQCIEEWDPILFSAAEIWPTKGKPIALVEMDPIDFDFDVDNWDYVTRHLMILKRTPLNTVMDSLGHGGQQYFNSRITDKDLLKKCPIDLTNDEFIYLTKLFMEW
The conditions noted are these: Buffer A, range given for all substrates.

The target in a further data set is T3, TFB2M-Δ13 (human) (UniProt Q9H5Q4).
T3 sequence (looked up, limits assumed): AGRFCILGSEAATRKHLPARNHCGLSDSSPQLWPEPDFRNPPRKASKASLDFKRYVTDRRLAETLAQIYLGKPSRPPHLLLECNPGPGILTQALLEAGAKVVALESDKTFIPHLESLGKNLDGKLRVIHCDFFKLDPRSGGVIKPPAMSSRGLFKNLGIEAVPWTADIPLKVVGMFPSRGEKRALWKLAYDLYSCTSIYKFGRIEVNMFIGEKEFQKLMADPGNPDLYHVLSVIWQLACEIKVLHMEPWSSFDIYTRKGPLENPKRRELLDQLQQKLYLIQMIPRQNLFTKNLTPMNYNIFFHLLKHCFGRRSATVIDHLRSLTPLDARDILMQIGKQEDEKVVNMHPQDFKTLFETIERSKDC
As to conditions: Buffer B, tighter than WT, value only in figure.

Construct, isoform or probe ends are uncertain for at least one entry. For part of these data: No signal at the amounts used counts as a negative. At least one verdict rests on a figure or table, not on a statement of the authors. Protein sequences can lack the tags named with them.

Consider TTTTTTTTTTTT [dT12], for which the figures for the binding result (in data set [1]; in data set [2]; with TFB2M-Δ13 (human)) were “no binding”, “binds” and “binds”, respectively.
